In PubChem BioAssay AID493014 (National Center for Advancing Translational Sciences (NCATS), 2011):
Screen size: about 340,000 compounds; about 170 (0.05%) were called active. This list was built around the results that the source calls inconclusive (neither active nor inactive); the mix of calls is not that of the screen. The call rests on the fitted dose curve; in most records, active means well fitted inhibition curve with a large enough effect in the signal ratio, with a control signal flat (not every such curve was filed as active); inconclusive means small, poorly fitted or top-dose-only effect, or effect the other way, or a change in a side signal; inactive means flat fitted curve, though single readings scatter; the % refers to the signal ratio. A potency beside an inconclusive call is a rough fit, not a confirmed value.

Experiment: qHTS Assay to Find Inhibitors of Chronic Active B-Cell Receptor Signaling;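 on activity change, negative = inhibition: plate controls were basal doxycycline-induced cells for no effect and cells given 10 µM MG132 for full effect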
Conditions: ABC-DLBCL IkBa-CBG/CBR reporter, luminescence ratio (green luciferase fused to IkBa over red control in TMD8 lymphoma cells), 4 h; activity change, negative = inhibition: at 46.1 µM (top of the series) unless noted
Method in brief: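 Doxycycline induced both beetle luciferases in TMD8 lymphoma cells; IKK-driven degradation limits the IkappaBalpha-fused green signal, while red luminescence normalises for cell number and nonspecific effects. Compounds tested up to 46 uM, 4 hrs.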
Potency means the concentration at half of the fitted maximal effect.

SMILES | activity change, negative = inhibition | Potency
CC(C)CC(OC(=O)CC1Sc2ccccc2NC1=O)C(=O)NC1CCCC1 (stereo unspecified) | inactive: 9.16% | 
O=C1N/C(=C/c2ccc(N3CCOCC3)o2)C(=O)N1c1cccc(Cl)c1 |  | inconclusive: 4.47 µM [cytotoxic, full curve]
Cc1onc(-c2ccccc2)c1C(=O)N/N=C(\N)COc1ccc(Cl)cc1 | inactive: -1.13% | 
CCN(CC)c1ccc(/C=N/Nc2nc(C)cc(C)n2)c(O)c1 | inconclusive: 2.59% | 
COc1ccc(C(=O)C2CCCN(C(=O)c3cc4nc(C)cc(C)n4n3)C2)cc1F (stereo unspecified) |  | inconclusive: 2.82 µM [falling, partial curve, poor fit]
COc1ccc(NC(=O)CN(C)C(=O)c2cn(-c3ccccc3)nc2-c2ccc(OC)cc2)cc1 | inconclusive: -1.61% | 
COc1ccc(N2CCN(C(c3cccs3)C(C)NC(=O)C(=O)N3CCCC3)CC2)cc1 (stereo unspecified) | inactive: -0.0074% | 
O=C(Nc1ccc(F)cc1)c1oc2ccccc2c1NC(=O)C1CCCC1 | inconclusive: 15.5% | 
COc1ccc(CCNC(=O)C(=O)NCC2CCCO2)cc1 (stereo unspecified) | inconclusive: -7.63% | 
CCNc1nc(NC(C)C)nc(N(C#N)CCOc2ccccc2)n1 |  | inconclusive: 8.2 µM [rising, partial curve, poor fit]
CCOC(=O)C1=C(C)C(c2ccc(OC)cc2OC)NC(=O)N1 (stereo unspecified) | inconclusive: 12.7% | 
CC1Sc2ccc(S(=O)(=O)N3CCN(c4cccc(Cl)c4)CC3)cc2NC1=O (stereo unspecified) | inconclusive: 15.5% | 
COc1cccc(CC(=O)NC2CCCN(Cc3ccc(Cl)cc3)C2)c1 (stereo unspecified) | inactive: 1.29% | 
Cc1occc1C(=O)N/N=C/c1sc(N2CCOCC2)nc1-c1ccccc1 | inactive: -11.2% | 
COc1cc2c(cc1O)CCN(C(=O)c1ccco1)C2C (stereo unspecified) |  | inconclusive: 11.2 µM [falling, partial curve, poor fit]
Cc1c(NC(=O)c2ccc(N3CCCC3)c([N+](=O)[O-])c2)cccc1-c1nc2ccccc2s1 | inactive: 7.22% | 
S=C(N=Nc1ccccc1)NNc1ccccc1 | inconclusive: 5.65% | 
COC(=O)N/N=C(\C)c1ccccc1Br | inactive: 15.8% | 
CCn1c(C)nc2cc(S(=O)(=O)C(F)F)ccc21 | inactive: -1.16% | 

5 consecutive entries already listed:
SMILES | activity change, negative = inhibition | Potency
COc1ccc(CCNC(=O)C(=O)NCC2CCCO2)cc1 (stereo unspecified) | inconclusive: -7.63% | 
CCNc1nc(NC(C)C)nc(N(C#N)CCOc2ccccc2)n1 |  | inconclusive: 8.2 µM [rising, partial curve, poor fit]
CCOC(=O)C1=C(C)C(c2ccc(OC)cc2OC)NC(=O)N1 (stereo unspecified) | inconclusive: 12.7% | 
CC1Sc2ccc(S(=O)(=O)N3CCN(c4cccc(Cl)c4)CC3)cc2NC1=O (stereo unspecified) | inconclusive: 15.5% | 
COc1cccc(CC(=O)NC2CCCN(Cc3ccc(Cl)cc3)C2)c1 (stereo unspecified) | inactive: 1.29% | 

(next part)

SMILES | activity change, negative = inhibition | Potency
O=C(CCl)NC(=O)NC12CC3CC(CC(C3)C1)C2 | inconclusive: -0.0842% | 
O=C(CN1C(=O)C2CC=CCC2C1=O)Nc1nc(-c2ccc(F)c(F)c2)cs1 (stereo unspecified) | inconclusive: 15.3% | 
N/C(=N\OC(=O)C1CCCCC1)c1ccc(Br)cc1 | inconclusive: 9.25% | 
Cc1ccc(OCc2nc(-c3cccs3)no2)c([N+](=O)[O-])c1 | inconclusive: -3.49% | 
CCc1nnnn1-c1ccc([N+](=O)[O-])cc1C | inconclusive: 1.35% | 
Cc1ccc(C(=O)OCC(=O)Nc2ccc3c(c2)OCO3)c(O)c1 | inconclusive: -4.63% | 
CCN(CC)c1ccc(NC(=O)c2ccc3c(c2)OCO3)cc1 |  | inconclusive: 22.4 µM [falling, partial curve, poor fit]
Cc1cccc(/N=C/c2c(O)[nH]c3ccccc23)n1 | inconclusive: -13.1% | 
COc1ccc(N=NC2=C(O)CC(C)(C)CC2=O)cc1 | inconclusive: -19.9% | 
COc1cccc2cc(CC(=O)c3ccc(C)cc3C)c(=O)oc12 |  | inconclusive: 17.8 µM [falling, partial curve]
COc1ccc(/C=N/n2cnc3scc(-c4cccs4)c3c2=O)cc1OC | inconclusive: -0.168% | 
CC(=O)c1ccc(NS(=O)(=O)c2cc(-c3cc(C)no3)ccc2C)cc1 |  | inconclusive: 2.82 µM [falling, partial curve, poor fit]
CC1(C)Cc2c(C#N)c(SCC(=O)c3ccccc3)nc(N3CCOCC3)c2CO1 | inconclusive: 1.35% | 
COc1cc(/C=C/c2nc3ccccc3c(=O)[nH]2)cc(Cl)c1O | inactive: 4.74% | 
CC(C)OC(=O)CSc1nc(Cc2cccs2)nc2ccccc12 | inactive: 14.3% | 
FC(F)C(F)(F)c1cc(-c2ccccc2)n[nH]1 | inactive: -1.52% | 
COc1ccc(OCC(O)CNC(C)c2ccccc2)cc1 (stereo unspecified) | inactive: 0.851% | 
CCCCC12CN3CCN(CC(C3)/C1=N\NC(=O)c1ccccc1N)C2 |  | inconclusive: 23.1 µM [falling, single point]
O=C(NCCc1nnc2ccc(SCC(=O)N3CCCC3)nn12)c1ccccc1 | inactive: -0.781% | 

SMILES | activity change, negative = inhibition | Potency
CCc1nc2ccccc2c(C(=O)OCc2nc3ccccc3c(=O)[nH]2)c1C | inconclusive: -1.74% | 
COc1ccc(SCCc2ccncc2)cc1 | inconclusive: -0.57% | 
CCCCN(C)Cc1c(O)ccc2c(-c3ccccc3)cc(=O)oc12 | inconclusive: 9.01% | 
CC(CCN1CCN(CCO)CC1)c1ccccc1 (stereo unspecified) | inactive: 8.74% | 
CCC(=O)Nc1cccc(C2=NOC3(C2)C[C@@H](C(N)=O)N(C(=O)c2cc([N+](=O)[O-])cc([N+](=O)[O-])c2)C3)c1 (stereo partly specified) | inconclusive: 5.18% | 
COC(=O)c1cc(S(=O)(=O)N2CCOCC2)c(Cl)cc1N1CCOCC1 | inactive: -18% | 
COc1ccc(CCNC(=O)/C=C\c2ccccc2)cc1OC | inconclusive: 3.97% | 
N/C(=N\OC(=O)CCc1ccccc1)c1ccc(Br)cc1 | inconclusive: 17.8% | 
Cc1cc2oc(=O)c(CC(=O)NCCCO)c(C)c2c2occ(C(C)(C)C)c12 | inactive: -8.06% | 
Fc1ccc(-c2nnc(-c3ccc(F)cc3)o2)cc1 | inconclusive: 12.1% | 
Nc1ncnc(N2CCc3ccccc32)c1[N+](=O)[O-] | inconclusive: -5.92% | 
COc1ccc(C)c(S(=O)(=O)Nc2ccc(OCC(=O)O)cc2)c1 | inconclusive: 18.2% | 
COc1ccc(-c2nonc2NC(=O)c2ccco2)cc1OC | inactive: -19.1% | 
CC(C)(C)c1ccc(OCCNC(=O)c2ncn[nH]2)cc1 | inconclusive: -0.9% | 
O=C1CCCC(O)=C1C=Nc1ccc(O)cc1 | inactive: -2.21% | 
CC(OC(=O)CN1C(=O)C2CC=CCC2C1=O)C(=O)Nc1ccc(F)cc1Cl (stereo unspecified) | inconclusive: 2.46% | 
O=C(CN1C(=O)NC2(CCCCCCC2)C1=O)Nc1cccc(Br)c1 | inconclusive: -8.59% | 
COc1ccc2nc(SCC(=O)Nc3ccc4[nH]c(=O)[nH]c4c3)[nH]c2c1 | inconclusive: -2.02% | 
